Test results from paper PMC12462922.
No constants are given. Whether binding was seen depends on the method and setting. Binding seen in cells or lysates may run through a third protein. Some binding calls cover weakened binding; strength is not graded here. Sequences can lack the tags named with a protein.

Chains of the proteins cited; added tags and fusions are not shown.
UniProt Q91W98: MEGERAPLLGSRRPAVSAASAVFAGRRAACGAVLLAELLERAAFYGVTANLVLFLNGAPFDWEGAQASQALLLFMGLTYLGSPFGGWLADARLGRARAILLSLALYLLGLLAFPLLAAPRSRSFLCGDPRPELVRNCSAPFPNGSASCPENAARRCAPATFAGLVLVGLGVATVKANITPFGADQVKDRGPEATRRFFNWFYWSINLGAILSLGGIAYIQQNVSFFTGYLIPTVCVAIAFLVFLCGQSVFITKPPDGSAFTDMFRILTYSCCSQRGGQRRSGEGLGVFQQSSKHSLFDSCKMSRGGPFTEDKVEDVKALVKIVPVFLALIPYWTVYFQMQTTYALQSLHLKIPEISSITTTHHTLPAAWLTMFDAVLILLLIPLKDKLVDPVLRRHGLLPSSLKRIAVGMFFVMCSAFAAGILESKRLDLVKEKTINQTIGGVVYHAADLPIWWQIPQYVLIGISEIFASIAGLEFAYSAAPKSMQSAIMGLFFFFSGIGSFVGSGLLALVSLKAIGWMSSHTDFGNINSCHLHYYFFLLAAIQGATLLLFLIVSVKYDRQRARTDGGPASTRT

What was measured:
[1] = target: T1, SLC15A3-HA (mouse) (UniProt Q8BPX9); test: co-IP; HEK293T cells co-transfected with plasmids encoding SLC15A3-HA, SLC15A4-FLAG and TASL-MYC; cell extracts; Pierce Crosslink Magnetic IP/Co-IP Kit; blots with antibodies against HA, MYC, FLAG
T1 sequence: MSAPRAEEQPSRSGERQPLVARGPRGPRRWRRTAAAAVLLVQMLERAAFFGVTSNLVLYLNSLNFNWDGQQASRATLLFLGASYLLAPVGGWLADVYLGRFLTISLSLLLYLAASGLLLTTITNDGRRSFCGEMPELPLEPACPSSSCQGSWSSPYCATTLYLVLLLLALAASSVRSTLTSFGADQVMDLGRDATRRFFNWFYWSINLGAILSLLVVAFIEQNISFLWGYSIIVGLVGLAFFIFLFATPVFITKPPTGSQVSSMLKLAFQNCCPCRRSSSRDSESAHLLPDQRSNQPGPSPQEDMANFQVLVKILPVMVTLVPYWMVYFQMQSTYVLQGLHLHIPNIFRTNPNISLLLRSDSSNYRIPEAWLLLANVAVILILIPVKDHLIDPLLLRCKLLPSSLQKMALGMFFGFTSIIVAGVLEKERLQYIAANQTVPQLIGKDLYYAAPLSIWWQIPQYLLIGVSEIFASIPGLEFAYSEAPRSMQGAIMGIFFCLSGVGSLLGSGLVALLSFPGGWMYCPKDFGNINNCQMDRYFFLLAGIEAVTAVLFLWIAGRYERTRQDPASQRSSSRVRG

[2] = target: SLC15A4-FLAG (mouse) (UniProt Q91W98); test: as above

binding [1]: binds
binding [2]: binds
B1: TASL-MYC (protein, UniProt Q9D3J9 1-298)
chain: MLSEGYLSGLTYWNDIHWNCASYNEPVAGDQGKETSSVAALSYSSVDETQVQSLYVSCKSSGKFISSVHARASQHSRSQSRTVLQANSNPVFESPTLAAVGICRDVIRETYLVPPSCKSICKNYNDLHIAGGQVMAINSVMANFPSESSFEDGPLLKSSEISLSMEDSTSTQLTELPLKPIQRYSSYWRITSIKEKSSLQMQKPISNAVLNEYLEQKVVELYKQYIMDTVFHDSSPTQILASEFIMTNVDQISLQVSKEKNLDTSKVKDIVISHLLQLVSSEISTPSLHISQYSNITP
